This note sets out measurements from publication PMC6797515, “Effects of Bakuchiol on chondrocyte proliferation via the PI3K‐Akt and ERK1/2 pathways mediated by the estrogen receptor for promotion of the regeneration of knee articular cartilage defects” (Cell Proliferation, 2019).

The subject of this data set is chondrocytes. The data set can be described thus: RNA-sequencing for differentially expressed genes. To be noted: 10 µmol/L BAK vs control. In kind it is cell-based, rat.

As for `C=C[C@@](C)(/C=C/c1ccc(O)cc1)CCC=C(C)C` [BAK, bakuchiol], the “number of down-regulated differentially expressed genes” value is listed as 32 genes and the “number of up-regulated differentially expressed genes” value worked out at 75 genes.
